The test system of the series is CA72-4 (cancer antigen 72-4, high-molecular-weight glycosylated tumor protein). Kind of series: electrochemical nanopore membrane sensor (current), XPS. Particulars: aptamer on membrane, dose-dependent, detection range 4-14 U/mL, LOD 4 U/mL (no Kd); 5' Thiol Modifier C6 S-S (TCEP-reduced), immobilized on MCH-modified gold-coated PC membrane; Aptamer immobilized (10 uM, 50 uL, 37 C, 60 min) on MCH/gold-coated PC membrane, washed with 1X PBS pH 7.4; commercial protein.

For at least one entry, the source does not settle the construct or the ends of the probe.

Regarding “CGGGGGUGCGAAGGGGGGCAGAGGUUUGACGCGAGA [CA72-4 Oligo RNA aptamer (36 nt)]”, the binding result is “binds”.
